{"source": "patent US4469680A", "about": "(SmithKline Beckman Corporation, priority 1983, dated 1984)", "experiment": "general procedure: Boc solid-phase peptide synthesis; benzhydrylamine resin (BHR) or chloromethyl/Merrifield resin (CMR)", "settings": "late stage modification step", "note": "HELM strings list residues between dots; [ac] is acetyl, [am] amide, other brackets name non-standard units."}
{"substance": "PEPTIDE1{[Pmp].[D-Tyr(I)].F.V.N.C.P.R.G.[am]}$PEPTIDE1,PEPTIDE1,1:R3-6:R3$$$V2.0", "values": [{"measurement": "step yield", "result": 65, "unit": "%"}]}
